Reference: publication PMC11118514, “Eminent Antimicrobial Peptide Resistance in Zymomonas mobilis: A Novel Advantage of Intrinsically Uncoupled Energetics” (Antibiotics, 2024)

Assay: Langmuir-Blodgett compression isotherms of model membrane with peptides
Set-up: species or system Zymomonas mobilis
Settings: Z. mobilis phospholipid model membrane + peptide, 30 ± 1 °C

**Q.** For `CC[C@H](C)[C@H](NC(=O)CNC(=O)[C@H](CCCCN)NC(=O)[C@H](Cc1ccc(O)cc1)NC(=O)[C@H](CS)NC(=O)[C@@H](NC(=O)[C@H](CCCCN)NC(=O)[C@H](Cc1ccccc1)NC(=O)[C@H](CS)NC(=O)[C@H](Cc1c[nH]c2ccccc12)NC(=O)[C@@H](N)CCCNC(=N)N)C(C)C)C(=O)N[C@@H](CS)C(=O)N[C@@H](Cc1ccc(O)cc1)C(=O)N[C@@H](CCCCN)C(=O)N[C@@H](CCCCN)C(=O)N[C@@H](CS)C(=O)N[C@@H](CCCCN)C(=O)O` [RP556] (H-RWCFKVCYKGICYKKCK-OH; N-terminus and C-terminus assumed), which “Mma (limiting area per molecule, Aπ→0)” value (extrapolated from linear part of π-A isotherm (25–40 mN/m), membranes alone 70.6) is on record?
**A.** Its value is 85.3 Å/molecule.

**Q.** And the “π Collapse” value (membranes alone 46.4)?
**A.** The value was 45 mN/m.

Where a SMILES comes first, the peptide text is derived from it.
